In doi:10.1101/2025.04.15.648887 one finds binding data, which are given here for one molecule.

No constants are given. Whether binding was seen depends on the method and setting. Binding seen in cells or lysates may run through a third protein. A yes stands for co-enrichment or nearness to the bait. Other partners may have been found.

The target of this experiment is YTHDF3 (rat (endogenous in H9c2)). The experiment in a line: affinity purification with mass spectrometry.

B1: DDX5 (protein, UniProt Q6AYI1 1-615)
chain: MSSYSSDRDRGRDRGFGAPRFGGSRTGPLSGKKFGNPGEKLVKKKWNLDELPKFEKNFYQEHPDLARRTAQEVDTYRRSKEITVRGHNCPKPVLNFYEANFPANVMDVIARQNFTEPTAIQAQGWPVALSGLDMVGVAQTGSGKTLSYLLPAIVHINHQPFLERGDGPICLVLAPTRELAQQVQQVAAEYCRACRLKSTCIYGGAPKGPQIRDLERGVEICIATPGRLIDFLECGKTNLRRTTYLVLDEADRMLDMGFEPQIRKIVDQIRPDRQTLMWSATWPKEVRQLAEDFLKDYIHINIGALELSANHNILQIVDVCHDVEKDEKLIRLMEEIMSEKENKTIVFVETKRRCDELTRKMRRDGWPAMGIHGDKSQQERDWVLNEFKHGKAPILIATDVASRGLDVEDVKFVINYDYPNSSEDYIHRIGRTARSTKTGTAYTFFTPNNIKQVSDLISVLREANQAINPKLLQLVEDRGSGRSRGRGGMKDDRRDRYSAGKRGGFNTFRDRENYDRGYSSLLKRDFGAKTQNGVYSAANYTNGSFGSNFVSAGIQTSFRTGNPTGTYQNGYDSTQQYGSNVANMHNGMNQQAYAYPATAAAAPMIGYPMPTGYSQ
Turning to B1, the binding result is “binds”.
